Source: patent publication US7572888B2, “Methods of assaying receptor activity and constructs useful in such methods” (Duke University, priority 1997, dated 2009)
At least one compound was matched to its structure with a doubt left.

System: dopamine receptor
Test: Locomotor responses to dopamine receptor stimulation
Type: in vivo, mouse
Conditions: data not shown
Text: For example, locomotor responses to dopamine receptor stimulation by cocaine and apornorphine were not enhanced (data not shown). […] Other regulatory elements, such as GRKs or βarrestin-1, could compensate for the lack of βarrestin-2, or the receptors could vary in their requirement for βarrestin interaction for their regulation.

COC(=O)[C@H]1[C@@H](OC(=O)c2ccccc2)C[C@@H]2CC[C@H]1N2C [cocaine]
locomotor responses in βarr2-KO vs wild type: not enhanced
